# Experimental data: the supplement of paper PMC10077471
# Over roughly 1,900 compounds, “excess over highest single agent (ExcessHSA) synergy score, 6x6 matrix” has its median near -83; the lowest 2% begin near -370. The list shows a part of the results.
# System: NCI-H446
# Assay: excess over highest single agent (ExcessHSA) synergy score, 6x6 matrix; higher = less synergy (more negative = stronger synergy)
# Conditions: 72 h; CellTiter-Glo viability
row,Structure (SMILES),excess over highest single agent
1,CS(=O)(=O)N1CCN(Cc2cc3nc(-c4cccc5[nH]ncc45)nc(N4CCOCC4)c3s2)CC1 + Cc1sc2c(c1C)C(c1ccc(Cl)cc1)=N[C@@H](CC(=O)OC(C)(C)C)c1nnc(C)n1-2 [NCGC00250412-19],-276
2,CC(C)NCC(O)c1ccc(O)c(O)c1 (stereo not given) + Cc1sc2c(c1C)C(c1ccc(Cl)cc1)=N[C@@H](CC(=O)OC(C)(C)C)c1nnc(C)n1-2 [NCGC00250412-19],-158
3,COc1cc(F)c(F)c(Nc2ccc(I)cc2F)c1NS(=O)(=O)C1(C[C@H](O)CO)CC1 + Cc1sc2c(c1C)C(c1ccc(Cl)cc1)=N[C@@H](CC(=O)OC(C)(C)C)c1nnc(C)n1-2 [NCGC00250412-19],-178
4,CN[C@@H]1[C@@H](O)[C@@H](O[C@@H]2[C@@H](O)[C@H](O[C@H]3O[C@H](CN)[C@@H](O)[C@H](O)[C@H]3O)[C@@H](N)C[C@H]2NC(=O)[C@@H](O)CN)OC[C@]1(C)O + Cc1sc2c(c1C)C(c1ccc(Cl)cc1)=N[C@@H](CC(=O)OC(C)(C)C)c1nnc(C)n1-2 [NCGC00250412-19],-77.6
5,CCCCN(CCCC)CCC(O)c1cc2c(Cl)cc(Cl)cc2c2cc(C(F)(F)F)ccc12 (stereo not given) + Cc1sc2c(c1C)C(c1ccc(Cl)cc1)=N[C@@H](CC(=O)OC(C)(C)C)c1nnc(C)n1-2 [NCGC00250412-19],-213
6,C#C[C@]1(O)CC[C@H]2[C@@H]3CCc4cc(O)ccc4[C@H]3CC[C@@]21C + Cc1sc2c(c1C)C(c1ccc(Cl)cc1)=N[C@@H](CC(=O)OC(C)(C)C)c1nnc(C)n1-2 [NCGC00250412-19],-211
7,COc1cc2nc(-c3ccc(N4CCN(C)CC4)cc3)nc(NCCN3CCOCC3)c2cc1OC + Cc1sc2c(c1C)C(c1ccc(Cl)cc1)=N[C@@H](CC(=O)OC(C)(C)C)c1nnc(C)n1-2 [NCGC00250412-19],-31.8
8,Cn1c(=O)n(-c2ccc(C(C)(C)C#N)cc2)c2c3cc(-c4cnc5ccccc5c4)ccc3ncc21 + Cc1sc2c(c1C)C(c1ccc(Cl)cc1)=N[C@@H](CC(=O)OC(C)(C)C)c1nnc(C)n1-2 [NCGC00250412-19],-327
9,O=C(OCC#CCSc1nnc(-c2cccc3ccccc23)o1)c1cc2ccccc2s1 + Cc1sc2c(c1C)C(c1ccc(Cl)cc1)=N[C@@H](CC(=O)OC(C)(C)C)c1nnc(C)n1-2 [NCGC00250412-19],-169
10,CCOc1cc(CC(=O)N[C@@H](CC(C)C)c2ccccc2N2CCCCC2)ccc1C(=O)O + Cc1sc2c(c1C)C(c1ccc(Cl)cc1)=N[C@@H](CC(=O)OC(C)(C)C)c1nnc(C)n1-2 [NCGC00250412-19],-80.5
